From patent US20040142821A1, “Pesticide composition comprising malononitrile compounds” (priority 2001, published 2004)
Some of these results come from one statement about several compounds together.

Columns and labels:
Nilaparvata lugens [1] = assay: Pesticidal test against Nilaparvata lugens, rice cotyledons immersed in test liquid (Test Example 3); assay type: in vivo, Nilaparvata lugens (brown planthoppers); settings: 500 ppm test liquid (Formulation Example 1), rice cotyledons immersed 1 minute; 30 first-instar larvae released; 25° C.
Nilaparvata lugens [2] = assay: Pesticidal test against Nilaparvata lugens, rice plants in holed cup placed in test liquid (Test Example 2); assay type: in vivo, Nilaparvata lugens (brown planthoppers); settings: 45.5 ppm test liquid (Formulation Example 5), 55 ml under holed cup with rice plants for 6 days; then 30 first-instar larvae released; 25° C.
Nilaparvata lugens [3] = assay: Pesticidal test against Nilaparvata lugens, test liquid sprayed onto rice plants (Test Example 1); assay type: in vivo, Nilaparvata lugens (brown planthopper); settings: 500 ppm test liquid (Formulation Example 5) sprayed 20 ml/cup onto rice plants; 30 first-instar larvae released; 25° C.

Structure (SMILES)	number of parasitic pests on the 6th day after the treatment (Nilaparvata lugens [1])	number of parasitic pests on the 6th day after the treatment (Nilaparvata lugens [2])	number of parasitic pests on the 6th day after the treatment (Nilaparvata lugens [3])
C=CCC(C#N)(C#N)Cc1ccc(OC(F)(F)F)cc1 [Compound 11, 2-allyl-2-(4-(trifluoromethoxy)benzyl)malononitrile]	≤ 3	≤ 3	≤ 3
C=CCCC(C#N)(C#N)C(C)c1ccc(OC(F)(F)F)cc1 (stereo not shown) [Compound 16, 2-(3-butenyl)-2-(1-(4-(trifluoromethoxy)phenyl)ethyl)malononitrile]	≤ 3	≤ 3	≤ 3
CC(C)=CCC(C#N)(C#N)Cc1ccc(OC(F)(F)F)cc1 [Compound 27, 2-(3-methyl-2-butenyl)-2-(4-(trifluoromethoxy)benzyl)malononitrile]	≤ 3		≤ 3
C=CCC(C#N)(C#N)Cc1ccc(SC(F)(F)F)cc1 [Compound 41, 2-allyl-2-(4-(trifluoromethylthio)benzyl)malononitrile]		≤ 3	≤ 3
CC(C)CCC(C#N)(C#N)Cc1ccc(OC(F)(F)F)cc1 [Compound 45, 2-(3-methylbutyl)-2-(4-(trifluoromethoxy)benzyl)malononitrile]		≤ 3	
C=CC(C)C(C#N)(C#N)Cc1ccc(SC(F)(F)F)cc1 (stereo not shown) [Compound 47, 2-(1-methyl-2-propenyl)-2-(4-(trifluoromethylthio)benzyl)malononitrile]		≤ 3	≤ 3
C=CCC(C#N)(C#N)C(C)(C)c1ccccc1Cl [Compound 49, 2-allyl-2-(1-(2-chlorophenyl)-1-methylethyl)malononitrile]	≤ 3	≤ 3	≤ 3
CC(C)C(C#N)(C#N)Cc1ccc(Cl)cc1 [Compound 51, 2-(4-chlorobenzyl)-2-isopropylmalononitrile]	≤ 3		
C=CCCC(C#N)(C#N)Cc1ccc(C(F)(F)F)cc1 [Compound 52, 2-(3-butenyl)-2-(4-(trifluoromethyl)benzyl)malononitrile]		≤ 3	≤ 3
C=CCC(C#N)(C#N)Cc1c(Cl)cccc1Cl [Compound 54, 2-allyl-2-(2,6-dichlorobenzyl)malononitrile]		≤ 3	
C=CCC(C#N)(C#N)Cc1ccc(C(F)(F)F)cc1Cl [Compound 58, 2-allyl-2-(2-chloro-4-(trifluoromethyl)benzyl)malononitrile]		≤ 3	≤ 3
C=CCC(C#N)(C#N)Cc1c(F)c(F)c(F)c(F)c1F [Compound 62, 2-allyl-2-(2,3,4,5,6-pentafluorobenzyl)malononitrile]	≤ 3		
C=CCC(C#N)(C#N)C(c1cccc(Cl)c1)C(C)C (stereo not shown) [Compound 66, 2-allyl-2-(1-(3-chlorophenyl)-2-methylpropyl)malononitrile]	≤ 3		
CC(C#N)(C#N)Cc1ccc(Cl)cc1 [Compound 68, 2-(4-chlorobenzyl)-2-methylmalononitrile]		≤ 3	
C=CCC(C#N)(C#N)Cc1ccc(C(F)(F)F)c(F)c1 [Compound 69, 2-allyl-2-(3-fluoro-4-(trifluoromethyl)benzyl)malononitrile]		≤ 3	≤ 3
CCCC(C#N)(C#N)Cc1ccc(C(F)(F)F)cc1 [Compound 71, 2-propyl-2-(4-(trifluoromethyl)benzyl)malononitrile]		≤ 3	≤ 3
CC/C=C\CCC(C#N)(C#N)Cc1ccc(Cl)cc1 [Compound 73, 2-(4-chlorobenzyl)-2-((Z)-3-hexenyl)malononitrile]	≤ 3		
C=CCC(C#N)(C#N)C(C)c1ccc(Cl)cc1 (stereo not shown) [Compound 74, 2-allyl-2-(1-(4-chlorophenyl)ethyl)malononitrile]	≤ 3		
CCC(C#N)(C#N)Cc1ccc(C(F)(F)F)cc1 [Compound 75, 2-ethyl-2-(4-(trifluoromethyl)benzyl)malononitrile]		≤ 3	≤ 3
C=CCCCC(C#N)(C#N)C(C)c1ccc(Cl)cc1 (stereo not shown) [Compound 76, 2-(1-(4-chlorophenyl)ethyl)-2-(4-pentenyl)malononitrile]	≤ 3		
C=CCC(C#N)(C#N)Cc1ccc(C)cc1 [Compound 77, 2-allyl-2-(4-methylbenzyl)malononitrile]	≤ 3		
CC(C)CC(C#N)(C#N)Cc1ccc(OC(F)(F)F)cc1 [Compound 87, 2-isobutyl-2-(4-(trifluoromethoxy)benzyl)malononitrile]		≤ 3	≤ 3
C=CCCC(C#N)(C#N)Cc1cccc(OC(F)(F)F)c1 [Compound 90, 2-(3-butenyl)-2-(3-(trifluoromethoxy)benzyl)malononitrile]		≤ 3	≤ 3
CC(C)CCC(C#N)(C#N)Cc1ccc(C(F)(F)F)cc1 [Compound 105, 2-(3-methylbutyl)-2-(4-(trifluoromethyl)benzyl)malononitrile]		≤ 3	≤ 3
CC(C)=CCC(C#N)(C#N)Cc1ccc(C(F)(F)F)cc1 [Compound 106, 2-(3-methyl-2-butenyl)-2-(4-(trifluoromethyl)benzyl)malononitrile]		≤ 3	≤ 3
C=C(C)CC(C#N)(C#N)Cc1ccc(C(F)(F)F)cc1 [Compound 108, 2-(2-methyl-2-propenyl)-2-(4-(trifluoromethyl)benzyl)malononitrile]		≤ 3	≤ 3
CCCCC(C#N)(C#N)Cc1ccc(C(F)(F)F)cc1 [Compound 109, 2-butyl-2-(4-(trifluoromethyl)benzyl)malononitrile]		≤ 3	≤ 3
CC(C)CC(C#N)(C#N)Cc1ccc(C(F)(F)F)cc1 [Compound 110, 2-(2-methylpropyl)-2-(4-(trifluoromethyl)benzyl)malononitrile]		≤ 3	≤ 3
